# In publication PMC10540345:
# Chains of the proteins cited; added tags and fusions are not shown.
# UniProt P54578: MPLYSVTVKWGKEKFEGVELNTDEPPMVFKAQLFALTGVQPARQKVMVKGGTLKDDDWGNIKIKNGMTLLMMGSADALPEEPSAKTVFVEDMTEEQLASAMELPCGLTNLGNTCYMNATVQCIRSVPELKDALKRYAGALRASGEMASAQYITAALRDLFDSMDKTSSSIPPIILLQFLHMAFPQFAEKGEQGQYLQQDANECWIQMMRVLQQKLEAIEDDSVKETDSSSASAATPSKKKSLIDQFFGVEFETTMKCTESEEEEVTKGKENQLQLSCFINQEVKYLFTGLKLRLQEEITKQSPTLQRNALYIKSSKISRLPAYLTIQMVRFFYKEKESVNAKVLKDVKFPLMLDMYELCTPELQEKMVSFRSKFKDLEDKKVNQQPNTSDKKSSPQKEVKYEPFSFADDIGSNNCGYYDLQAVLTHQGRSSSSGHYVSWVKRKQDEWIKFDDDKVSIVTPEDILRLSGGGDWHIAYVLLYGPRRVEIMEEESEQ
# UniProt P35579: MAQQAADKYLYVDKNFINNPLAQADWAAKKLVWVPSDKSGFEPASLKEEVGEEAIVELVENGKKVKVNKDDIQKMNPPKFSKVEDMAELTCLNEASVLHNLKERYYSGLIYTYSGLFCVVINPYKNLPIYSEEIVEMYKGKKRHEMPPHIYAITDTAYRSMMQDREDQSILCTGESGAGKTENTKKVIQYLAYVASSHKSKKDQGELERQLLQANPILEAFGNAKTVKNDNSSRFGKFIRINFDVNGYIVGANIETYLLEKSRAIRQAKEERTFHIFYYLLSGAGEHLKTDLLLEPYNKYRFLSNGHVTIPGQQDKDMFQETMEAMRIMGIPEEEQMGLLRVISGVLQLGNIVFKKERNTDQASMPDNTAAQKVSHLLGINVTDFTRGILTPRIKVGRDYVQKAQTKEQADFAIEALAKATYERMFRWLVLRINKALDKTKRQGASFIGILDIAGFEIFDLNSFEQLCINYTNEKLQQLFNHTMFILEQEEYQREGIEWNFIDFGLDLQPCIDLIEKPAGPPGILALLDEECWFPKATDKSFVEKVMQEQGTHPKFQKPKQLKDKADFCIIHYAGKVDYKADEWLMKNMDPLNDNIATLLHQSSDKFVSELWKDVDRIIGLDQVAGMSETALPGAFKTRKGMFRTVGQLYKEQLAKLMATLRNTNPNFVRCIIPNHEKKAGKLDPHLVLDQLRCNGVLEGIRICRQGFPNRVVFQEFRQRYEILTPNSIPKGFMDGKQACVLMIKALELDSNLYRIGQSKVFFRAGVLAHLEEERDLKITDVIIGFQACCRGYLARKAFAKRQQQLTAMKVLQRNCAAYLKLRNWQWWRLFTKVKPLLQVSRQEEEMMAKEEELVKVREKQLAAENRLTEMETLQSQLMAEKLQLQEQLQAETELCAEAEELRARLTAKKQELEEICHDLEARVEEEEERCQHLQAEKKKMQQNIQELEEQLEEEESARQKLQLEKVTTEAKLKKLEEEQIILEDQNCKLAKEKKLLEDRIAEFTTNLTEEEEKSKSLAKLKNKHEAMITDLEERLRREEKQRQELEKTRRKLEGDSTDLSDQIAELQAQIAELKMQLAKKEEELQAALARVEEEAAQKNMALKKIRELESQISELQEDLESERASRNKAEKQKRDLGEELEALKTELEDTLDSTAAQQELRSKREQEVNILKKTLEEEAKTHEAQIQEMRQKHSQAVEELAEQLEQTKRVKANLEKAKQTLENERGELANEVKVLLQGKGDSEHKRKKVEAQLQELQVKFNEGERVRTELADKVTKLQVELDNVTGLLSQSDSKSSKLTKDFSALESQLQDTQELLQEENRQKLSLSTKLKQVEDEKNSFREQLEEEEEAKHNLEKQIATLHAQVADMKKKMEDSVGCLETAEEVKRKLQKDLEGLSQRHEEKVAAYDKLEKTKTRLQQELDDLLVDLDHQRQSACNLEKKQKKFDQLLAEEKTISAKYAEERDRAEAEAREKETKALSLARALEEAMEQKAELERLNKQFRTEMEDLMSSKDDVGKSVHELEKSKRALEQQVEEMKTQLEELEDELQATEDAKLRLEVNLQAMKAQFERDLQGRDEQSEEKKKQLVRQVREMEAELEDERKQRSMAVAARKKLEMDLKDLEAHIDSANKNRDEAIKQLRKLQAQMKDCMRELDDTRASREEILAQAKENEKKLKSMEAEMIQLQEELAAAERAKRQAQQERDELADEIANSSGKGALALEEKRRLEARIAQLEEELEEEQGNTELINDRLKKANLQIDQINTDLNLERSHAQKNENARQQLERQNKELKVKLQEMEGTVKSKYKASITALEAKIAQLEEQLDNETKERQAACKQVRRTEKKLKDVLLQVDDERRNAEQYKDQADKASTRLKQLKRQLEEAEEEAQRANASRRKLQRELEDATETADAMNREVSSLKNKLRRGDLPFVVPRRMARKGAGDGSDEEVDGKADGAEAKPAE
# These are yes or no findings as the source states them, for the method shown. Binding seen in cells or lysates may run through a third protein. Some results given as binding are weak or reduced against the parent protein; the word gives no strength.
# Assays:
# [1] = biological target: T1, Nucleosome assembly protein 1 Like 1 (NAP1L1) (human (endogenous in U87 and LN229)) (UniProt P55209); experiment: co-IP; endogenous proteins in lysates of U87 and LN229 cells (Pierce IP Lysis buffer with protease and phosphatase inhibitors), antibodies and magnetic beads, western blot; NAP1L1 with c-Myc also after si-MYH9 in LN229 (interaction weakened)
# T1 sequence: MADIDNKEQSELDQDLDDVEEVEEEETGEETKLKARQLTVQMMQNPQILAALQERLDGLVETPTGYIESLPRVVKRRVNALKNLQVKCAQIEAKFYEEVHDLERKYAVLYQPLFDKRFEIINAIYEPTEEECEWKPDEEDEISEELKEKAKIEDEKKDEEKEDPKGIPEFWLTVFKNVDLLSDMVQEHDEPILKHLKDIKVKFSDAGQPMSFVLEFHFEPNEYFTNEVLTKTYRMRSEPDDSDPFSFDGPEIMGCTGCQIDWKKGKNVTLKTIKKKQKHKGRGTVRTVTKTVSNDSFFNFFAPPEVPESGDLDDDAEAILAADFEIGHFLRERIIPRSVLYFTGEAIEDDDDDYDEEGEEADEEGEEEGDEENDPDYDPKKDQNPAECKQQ
# [2] = biological target: USP14 (human (endogenous in LN229 and U87)) (UniProt P54578); experiment: as above
substance,measurement,setting,value
Myosin heavy chain 9 (MYH9) (from UniProt P35579 1-1960),binding,[1],binds
same,binding,[2],binds
